# Test results taken from the supplement of paper PMC10849652.
# Amino acid sequences for entries named in this document (tags omitted). A change or cut given only in a name is not applied to a line headed by its entry.
# UniProt Q02224: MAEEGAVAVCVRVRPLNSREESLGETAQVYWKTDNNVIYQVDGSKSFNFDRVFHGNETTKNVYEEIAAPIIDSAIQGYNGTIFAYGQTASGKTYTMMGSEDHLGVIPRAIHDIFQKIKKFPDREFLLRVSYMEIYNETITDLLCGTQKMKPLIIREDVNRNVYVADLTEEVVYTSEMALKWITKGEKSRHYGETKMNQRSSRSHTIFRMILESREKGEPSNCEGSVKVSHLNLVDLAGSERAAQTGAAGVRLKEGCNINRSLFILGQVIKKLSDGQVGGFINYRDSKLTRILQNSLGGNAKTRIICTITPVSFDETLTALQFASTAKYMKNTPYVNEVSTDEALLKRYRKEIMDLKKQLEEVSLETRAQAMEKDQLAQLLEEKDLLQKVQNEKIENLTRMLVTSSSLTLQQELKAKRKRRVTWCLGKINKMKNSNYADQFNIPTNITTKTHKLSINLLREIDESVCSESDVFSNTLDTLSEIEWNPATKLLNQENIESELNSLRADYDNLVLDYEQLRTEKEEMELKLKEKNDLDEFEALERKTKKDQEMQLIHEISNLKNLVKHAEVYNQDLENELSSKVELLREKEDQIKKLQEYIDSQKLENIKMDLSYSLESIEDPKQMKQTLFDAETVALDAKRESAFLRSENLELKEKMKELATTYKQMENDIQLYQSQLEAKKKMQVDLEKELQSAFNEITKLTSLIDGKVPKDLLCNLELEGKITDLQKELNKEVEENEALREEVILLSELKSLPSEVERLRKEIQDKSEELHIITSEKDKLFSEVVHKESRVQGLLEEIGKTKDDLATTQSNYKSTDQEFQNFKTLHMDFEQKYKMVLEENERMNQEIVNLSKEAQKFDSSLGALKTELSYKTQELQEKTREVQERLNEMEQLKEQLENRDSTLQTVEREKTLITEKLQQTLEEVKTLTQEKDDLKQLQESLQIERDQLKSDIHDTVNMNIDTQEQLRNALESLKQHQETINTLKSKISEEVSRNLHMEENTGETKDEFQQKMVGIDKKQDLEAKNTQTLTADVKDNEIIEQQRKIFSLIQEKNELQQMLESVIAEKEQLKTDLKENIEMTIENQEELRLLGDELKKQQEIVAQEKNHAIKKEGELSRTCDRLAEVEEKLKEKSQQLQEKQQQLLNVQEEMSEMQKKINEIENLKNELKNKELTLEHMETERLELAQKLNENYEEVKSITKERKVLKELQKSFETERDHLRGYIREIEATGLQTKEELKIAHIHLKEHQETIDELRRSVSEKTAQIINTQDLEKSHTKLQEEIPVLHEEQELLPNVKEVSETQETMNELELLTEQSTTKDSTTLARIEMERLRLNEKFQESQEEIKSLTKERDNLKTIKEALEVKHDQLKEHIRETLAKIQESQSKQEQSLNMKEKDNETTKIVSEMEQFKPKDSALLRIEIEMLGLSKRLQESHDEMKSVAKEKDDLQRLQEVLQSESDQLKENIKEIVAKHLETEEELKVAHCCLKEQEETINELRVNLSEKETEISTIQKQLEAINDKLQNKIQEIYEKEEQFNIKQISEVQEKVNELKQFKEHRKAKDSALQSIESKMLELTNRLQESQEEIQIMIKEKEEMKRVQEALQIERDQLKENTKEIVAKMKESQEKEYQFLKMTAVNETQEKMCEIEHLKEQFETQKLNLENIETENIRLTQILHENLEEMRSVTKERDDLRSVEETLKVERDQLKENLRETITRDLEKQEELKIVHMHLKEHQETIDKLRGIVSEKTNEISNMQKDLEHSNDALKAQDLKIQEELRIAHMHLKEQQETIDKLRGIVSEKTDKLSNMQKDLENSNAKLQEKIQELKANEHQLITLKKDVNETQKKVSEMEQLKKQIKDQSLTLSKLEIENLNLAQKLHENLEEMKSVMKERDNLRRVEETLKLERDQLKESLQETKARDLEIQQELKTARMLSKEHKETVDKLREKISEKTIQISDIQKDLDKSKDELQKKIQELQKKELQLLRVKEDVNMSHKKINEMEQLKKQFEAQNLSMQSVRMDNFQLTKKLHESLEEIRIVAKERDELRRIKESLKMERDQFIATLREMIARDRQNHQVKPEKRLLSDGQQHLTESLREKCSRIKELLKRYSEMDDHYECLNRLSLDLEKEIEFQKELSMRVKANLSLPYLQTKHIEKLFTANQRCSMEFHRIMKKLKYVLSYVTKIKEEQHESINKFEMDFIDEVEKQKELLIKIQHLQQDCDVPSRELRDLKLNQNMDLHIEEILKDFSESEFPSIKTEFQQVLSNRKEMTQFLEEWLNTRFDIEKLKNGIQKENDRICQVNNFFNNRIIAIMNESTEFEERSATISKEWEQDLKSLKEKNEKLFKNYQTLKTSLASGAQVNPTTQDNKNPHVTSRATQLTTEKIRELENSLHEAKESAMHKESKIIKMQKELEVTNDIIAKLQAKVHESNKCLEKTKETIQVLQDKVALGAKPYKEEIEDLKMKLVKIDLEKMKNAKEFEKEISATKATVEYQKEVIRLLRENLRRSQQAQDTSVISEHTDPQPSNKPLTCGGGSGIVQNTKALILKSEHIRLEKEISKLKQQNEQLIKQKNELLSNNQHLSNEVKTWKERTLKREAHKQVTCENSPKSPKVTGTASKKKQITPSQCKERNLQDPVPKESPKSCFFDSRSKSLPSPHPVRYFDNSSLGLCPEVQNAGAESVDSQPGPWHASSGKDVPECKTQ
# UniProt O14519: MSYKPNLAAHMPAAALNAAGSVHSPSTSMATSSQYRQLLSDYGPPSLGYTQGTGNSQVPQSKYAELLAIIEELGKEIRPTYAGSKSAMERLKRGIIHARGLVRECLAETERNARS
# UniProt P42773: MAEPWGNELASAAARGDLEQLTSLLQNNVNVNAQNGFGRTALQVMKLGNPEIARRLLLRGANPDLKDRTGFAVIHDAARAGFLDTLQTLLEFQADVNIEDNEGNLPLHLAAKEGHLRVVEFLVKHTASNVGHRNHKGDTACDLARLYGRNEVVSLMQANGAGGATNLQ
# UniProt P23528, whole entry, looked up: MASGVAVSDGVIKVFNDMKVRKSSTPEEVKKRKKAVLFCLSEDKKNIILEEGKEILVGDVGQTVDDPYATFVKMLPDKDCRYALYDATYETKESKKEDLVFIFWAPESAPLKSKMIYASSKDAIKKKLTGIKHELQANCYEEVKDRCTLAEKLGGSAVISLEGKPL
# UniProt Q15517: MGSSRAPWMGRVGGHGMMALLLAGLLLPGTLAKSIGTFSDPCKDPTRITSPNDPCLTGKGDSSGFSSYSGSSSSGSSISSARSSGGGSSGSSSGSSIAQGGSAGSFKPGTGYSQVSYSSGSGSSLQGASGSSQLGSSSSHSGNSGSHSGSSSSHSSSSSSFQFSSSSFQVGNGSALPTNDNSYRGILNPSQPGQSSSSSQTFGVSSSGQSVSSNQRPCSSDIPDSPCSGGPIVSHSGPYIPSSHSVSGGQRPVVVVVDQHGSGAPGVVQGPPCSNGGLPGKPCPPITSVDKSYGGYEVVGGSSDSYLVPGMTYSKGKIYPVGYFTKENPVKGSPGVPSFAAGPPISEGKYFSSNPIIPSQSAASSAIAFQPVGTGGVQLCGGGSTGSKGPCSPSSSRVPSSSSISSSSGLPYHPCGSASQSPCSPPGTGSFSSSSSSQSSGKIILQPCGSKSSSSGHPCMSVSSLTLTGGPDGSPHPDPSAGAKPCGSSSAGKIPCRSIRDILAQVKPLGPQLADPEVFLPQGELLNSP
# UniProt P08603, whole entry, looked up: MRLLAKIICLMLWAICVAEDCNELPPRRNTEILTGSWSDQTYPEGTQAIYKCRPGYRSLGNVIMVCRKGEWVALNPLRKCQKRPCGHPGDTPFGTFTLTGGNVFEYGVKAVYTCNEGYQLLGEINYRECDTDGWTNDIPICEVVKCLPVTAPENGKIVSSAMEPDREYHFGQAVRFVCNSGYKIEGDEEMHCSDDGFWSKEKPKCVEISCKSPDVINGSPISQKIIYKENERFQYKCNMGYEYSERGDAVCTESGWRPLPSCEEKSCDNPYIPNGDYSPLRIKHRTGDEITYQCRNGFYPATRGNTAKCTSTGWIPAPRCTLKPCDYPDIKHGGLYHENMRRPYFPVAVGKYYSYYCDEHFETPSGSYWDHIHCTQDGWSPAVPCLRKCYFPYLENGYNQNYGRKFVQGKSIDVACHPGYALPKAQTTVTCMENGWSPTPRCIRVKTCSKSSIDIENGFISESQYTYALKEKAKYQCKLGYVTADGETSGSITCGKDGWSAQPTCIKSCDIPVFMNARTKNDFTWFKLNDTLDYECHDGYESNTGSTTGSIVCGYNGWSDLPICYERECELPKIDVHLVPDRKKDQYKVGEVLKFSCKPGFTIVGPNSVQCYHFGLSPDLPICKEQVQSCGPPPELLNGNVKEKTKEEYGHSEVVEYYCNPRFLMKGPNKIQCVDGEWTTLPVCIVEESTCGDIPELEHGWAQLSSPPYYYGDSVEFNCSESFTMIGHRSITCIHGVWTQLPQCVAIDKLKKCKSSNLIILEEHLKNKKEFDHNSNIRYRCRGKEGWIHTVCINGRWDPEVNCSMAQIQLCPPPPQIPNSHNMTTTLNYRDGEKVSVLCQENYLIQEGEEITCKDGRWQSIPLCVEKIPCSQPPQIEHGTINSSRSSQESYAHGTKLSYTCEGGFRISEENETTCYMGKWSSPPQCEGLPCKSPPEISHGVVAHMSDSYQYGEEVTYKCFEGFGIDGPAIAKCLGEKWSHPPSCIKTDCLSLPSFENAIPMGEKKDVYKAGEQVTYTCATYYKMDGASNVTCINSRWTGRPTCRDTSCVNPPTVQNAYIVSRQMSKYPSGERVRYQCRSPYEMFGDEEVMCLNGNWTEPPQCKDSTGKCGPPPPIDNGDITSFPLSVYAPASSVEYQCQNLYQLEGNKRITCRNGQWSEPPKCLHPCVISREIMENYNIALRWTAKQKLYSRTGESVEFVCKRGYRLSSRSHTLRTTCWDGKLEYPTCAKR
# UniProt O75794: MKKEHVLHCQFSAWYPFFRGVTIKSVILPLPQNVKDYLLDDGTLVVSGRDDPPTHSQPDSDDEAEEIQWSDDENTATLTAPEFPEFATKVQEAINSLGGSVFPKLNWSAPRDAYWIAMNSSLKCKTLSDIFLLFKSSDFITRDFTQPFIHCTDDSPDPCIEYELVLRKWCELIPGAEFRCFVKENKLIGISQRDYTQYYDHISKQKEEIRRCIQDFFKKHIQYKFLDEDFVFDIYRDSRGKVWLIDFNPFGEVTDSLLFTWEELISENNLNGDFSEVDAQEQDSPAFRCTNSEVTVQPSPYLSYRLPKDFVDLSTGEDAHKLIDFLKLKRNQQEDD
# UniProt Q9UEE9, whole entry, looked up: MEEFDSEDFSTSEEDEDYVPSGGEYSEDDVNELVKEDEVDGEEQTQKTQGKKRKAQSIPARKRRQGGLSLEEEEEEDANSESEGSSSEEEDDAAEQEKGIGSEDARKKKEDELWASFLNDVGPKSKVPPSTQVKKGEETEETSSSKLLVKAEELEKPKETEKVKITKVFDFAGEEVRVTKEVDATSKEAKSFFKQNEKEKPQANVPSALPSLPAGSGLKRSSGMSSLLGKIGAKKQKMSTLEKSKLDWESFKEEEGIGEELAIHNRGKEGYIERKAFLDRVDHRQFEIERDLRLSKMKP
# UniProt Q9NXV6: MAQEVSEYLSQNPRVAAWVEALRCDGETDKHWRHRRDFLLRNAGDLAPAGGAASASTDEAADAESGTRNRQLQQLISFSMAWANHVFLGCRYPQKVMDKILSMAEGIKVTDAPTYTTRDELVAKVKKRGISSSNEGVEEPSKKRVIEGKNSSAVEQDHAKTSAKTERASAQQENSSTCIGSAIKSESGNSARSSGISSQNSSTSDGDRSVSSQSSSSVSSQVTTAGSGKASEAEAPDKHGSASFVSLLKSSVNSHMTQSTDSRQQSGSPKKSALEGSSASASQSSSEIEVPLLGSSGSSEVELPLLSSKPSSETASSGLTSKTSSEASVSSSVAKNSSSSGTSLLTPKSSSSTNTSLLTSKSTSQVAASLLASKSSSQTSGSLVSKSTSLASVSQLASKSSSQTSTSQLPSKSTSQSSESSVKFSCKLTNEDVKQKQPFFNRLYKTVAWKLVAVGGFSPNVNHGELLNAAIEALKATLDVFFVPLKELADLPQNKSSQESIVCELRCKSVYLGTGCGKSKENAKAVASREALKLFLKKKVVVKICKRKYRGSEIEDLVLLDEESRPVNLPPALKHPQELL
# UniProt Q86X02: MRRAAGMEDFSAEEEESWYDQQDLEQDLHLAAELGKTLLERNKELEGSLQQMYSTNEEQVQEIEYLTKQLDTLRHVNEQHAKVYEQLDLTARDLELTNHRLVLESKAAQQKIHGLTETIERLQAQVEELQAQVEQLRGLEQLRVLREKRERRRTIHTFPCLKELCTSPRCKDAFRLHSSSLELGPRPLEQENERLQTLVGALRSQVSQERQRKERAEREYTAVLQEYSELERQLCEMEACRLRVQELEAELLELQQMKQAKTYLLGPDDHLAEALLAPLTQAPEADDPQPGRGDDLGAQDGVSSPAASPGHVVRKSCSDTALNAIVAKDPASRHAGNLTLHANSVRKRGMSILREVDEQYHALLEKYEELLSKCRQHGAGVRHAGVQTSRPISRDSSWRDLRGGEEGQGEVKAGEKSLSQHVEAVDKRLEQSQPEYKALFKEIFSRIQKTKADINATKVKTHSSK
# The other results are listed elsewhere or left out.
# What was measured:
# Experiment in all cases: log2 fold change, soluble protein after heating vs DMSO (PISA); higher = thermal stabilisation; K562 lysate, 10 uM; active = over 0.2 and 3.5 SD of the protein, either way, in both replicates (recomputed)
# lapatinib = compound: CS(=O)(=O)CCNCc1ccc(-c2ccc3ncnc(Nc4ccc(OCc5cccc(F)c5)c(Cl)c4)c3c2)o1 [lapatinib]
# How it was run: (§1)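 The values are log-two fold changes in thermal stability compared with solvent controls and come from duplicates. They were obtained by TMTpro 16plex LC-MS/MS, with channel sums equalised, on the supernatant after 21,000xg for 90 min. That supernatant came from crude K562 extract at 1 mg/mL protein treated with 10 μM compound for 30 min, heated for 3 min across 48°C-58°C, pooled and brought to 0.5% NP-40 at 4°C.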
# pictilisib = compound: CS(=O)(=O)N1CCN(Cc2cc3nc(-c4cccc5[nH]ncc45)nc(N4CCOCC4)c3s2)CC1 [pictilisib]
# How it was run: as §1
# crizotinib = compound: C[C@@H](Oc1cc(-c2cnn(C3CCNCC3)c2)cnc1N)c1c(Cl)ccc(F)c1Cl [crizotinib]
# How it was run: as §1
# [1] = compound: C[C@H](C1=CC=C(C=C1)C(=O)NC2=C3C=CNC3=NC=C2)N
# How it was run: as §1
# duvelisib = compound: C[C@H](Nc1ncnc2nc[nH]c12)c1cc2cccc(Cl)c2c(=O)n1-c1ccccc1 [duvelisib]
# How it was run: as §1
# gandotinib = compound: Cc1cc(Nc2cc(CN3CCOCC3)c3nc(C)c(Cc4ccc(Cl)cc4F)n3n2)n[nH]1 [gandotinib]
# How it was run: as §1
# tozasertib = compound: Cc1cc(Nc2cc(N3CCN(C)CC3)nc(Sc3ccc(NC(=O)C4CC4)cc3)n2)n[nH]1 [tozasertib]
# How it was run: as §1
# doramapimod = compound: Cc1ccc(-n2nc(C(C)(C)C)cc2NC(=O)Nc2ccc(OCCN3CCOCC3)c3ccccc23)cc1 [doramapimod]
# How it was run: as §1
# bafetinib = compound: Cc1ccc(NC(=O)c2ccc(CN3CC[C@H](N(C)C)C3)c(C(F)(F)F)c2)cc1Nc1nccc(-c2cncnc2)n1 [bafetinib]
# How it was run: as §1
# [2] = compound: Cc1cccc(CC(=O)N2CCc3c2ccc(-c2cn(C)c4ncnc(N)c24)c3F)n1
# How it was run: as §1
Target,log2 fold change (lapatinib),log2 fold change (pictilisib),log2 fold change (crizotinib),log2 fold change [1],log2 fold change (duvelisib),log2 fold change (gandotinib),log2 fold change (tozasertib),log2 fold change (doramapimod),log2 fold change (bafetinib),log2 fold change [2]
CDV3 (UniProt Q9UKY7),inactive: -0.032,inactive: -0.006,inactive: 0.038,inactive: -0.01,inactive: 0.014,inactive: 0.029,inactive: 0.011,inactive: -0.04,inactive: 0.011,inactive: -0.038
CENPE (UniProt Q02224),inactive: 0.069,inactive: -0.049,inactive: -0.06,inactive: -0.103,inactive: -0.005,inactive: 0.04,inactive: -0.024,inactive: 0.018,inactive: -0.042,inactive: 0.156
CDK19 (UniProt Q9BWU1),inactive: 0.033,inactive: -0.218,inactive: -0.128,inactive: -0.056,inactive: 0,inactive: -0.14,inactive: 0.153,inactive: 0.344,inactive: 0.028,inactive: 0
CEP131 (UniProt Q9UPN4),inactive: 0.002,inactive: 0.045,inactive: -0.018,inactive: -0.049,inactive: -0.118,inactive: 0.09,inactive: -0.019,inactive: -0.013,inactive: -0.065,inactive: 0.103
CDK13 (UniProt Q14004),inactive: -0.077,inactive: 0.108,inactive: 0.08,inactive: 0.025,inactive: -0.006,inactive: -0.1,inactive: 0.027,inactive: 0.002,inactive: 0.101,inactive: -0.046
CDK2AP1 (UniProt O14519),inactive: -0.116,inactive: -0.032,inactive: -0.002,inactive: 0.004,inactive: -0.068,inactive: 0.024,inactive: -0.051,inactive: 0.023,inactive: -0.123,inactive: -0.046
CDC7 (UniProt O00311),inactive: 0.112,inactive: -0.067,inactive: -0.024,active: -0.335,inactive: -0.007,inactive: 0.047,inactive: -0.01,inactive: 0.06,inactive: 0.009,inactive: 0.087
CDKN2C (UniProt P42773),inactive: 0.078,inactive: 0.004,inactive: -0.02,inactive: 0.073,inactive: 0.053,inactive: -0.188,inactive: 0.136,inactive: 0.02,inactive: -0.033,inactive: -0.095
CFL1 (UniProt P23528),inactive: 0.022,inactive: 0.037,inactive: 0.046,inactive: 0.063,inactive: 0.015,inactive: -0.018,inactive: -0.027,inactive: -0.023,inactive: 0.149,inactive: -0.071
CDC16 (UniProt Q13042),inactive: 0.016,inactive: 0,inactive: 0.009,inactive: 0.047,inactive: 0.011,inactive: -0.095,inactive: 0.06,inactive: 0.014,inactive: -0.039,inactive: -0.057
CDSN (UniProt Q15517),inactive: -0.006,inactive: 0.159,inactive: 0.094,inactive: 0.29,inactive: -0.136,inactive: -0.287,inactive: 0.62,inactive: -0.119,inactive: 0.256,inactive: -0.071
CDKN1C (UniProt P49918),inactive: 0.027,inactive: -0.033,inactive: 0.105,inactive: -0.025,inactive: -0.035,inactive: -0.046,inactive: -0.095,inactive: -0.045,inactive: 0.049,inactive: 0.071
CERS2 (UniProt Q96G23),inactive: -0.158,inactive: 0.02,inactive: 0.033,inactive: -0.009,inactive: -0.041,inactive: -0.139,inactive: -0.017,inactive: -0.015,inactive: -0.047,inactive: -0.094
CFH (UniProt P08603),inactive: -0.013,inactive: -0.053,inactive: 0.014,inactive: 0.176,inactive: -0.08,inactive: -0.08,inactive: 0.011,inactive: 0.025,inactive: -0.014,inactive: -0.121
CEPT1 (UniProt Q9Y6K0),inactive: -0.121,inactive: -0.08,inactive: -0.122,inactive: -0.106,inactive: -0.019,inactive: -0.058,inactive: 0.025,inactive: -0.07,inactive: -0.124,active: 0.223
CDC42BPB (UniProt Q9Y5S2),inactive: -0.11,inactive: -0.009,inactive: -0.182,inactive: 0.223,inactive: 0.055,inactive: -0.177,inactive: 0.107,inactive: 0.199,inactive: -0.062,inactive: -0.042
CDYL (UniProt Q9Y232),inactive: 0.088,inactive: 0.018,inactive: -0.03,inactive: -0.014,inactive: -0.006,inactive: -0.005,inactive: 0.045,inactive: -0.01,inactive: -0.013,inactive: 0.031
CDC123 (UniProt O75794),inactive: 0.016,inactive: -0.011,inactive: -0.012,inactive: 0.032,inactive: 0.02,active: 0.335,inactive: -0.022,inactive: -0.032,inactive: -0.049,inactive: -0.048
CEP350 (UniProt Q5VT06),inactive: -0.034,inactive: 0.005,inactive: 0.012,inactive: 0.005,inactive: 0.012,inactive: 0.031,inactive: 0.038,inactive: 0.009,inactive: 0.026,inactive: 0.071
CDCA3 (UniProt Q99618),inactive: 0.014,inactive: 0.007,inactive: 0.038,inactive: -0.062,inactive: -0.021,inactive: 0.053,inactive: 0.098,inactive: 0.088,inactive: 0.014,inactive: 0.051
CDCP1 (UniProt Q9H5V8),inactive: -0.009,inactive: -0.063,inactive: 0.005,inactive: -0.017,inactive: -0.02,inactive: 0.019,inactive: -0.013,inactive: 0.003,inactive: -0.03,inactive: 0.045
CEP290 (UniProt O15078),inactive: -0.01,inactive: -0.046,inactive: -0.072,inactive: -0.041,inactive: 0.066,inactive: -0.054,inactive: 0.098,inactive: 0.079,inactive: 0.001,inactive: 0.03
CENPF (UniProt P49454),inactive: -0.029,inactive: -0.011,inactive: 0,inactive: 0.074,inactive: -0.013,inactive: -0.037,inactive: 0.01,inactive: -0.008,inactive: 0.015,inactive: 0.002
CD97 (UniProt P48960),inactive: 0.024,inactive: -0.018,inactive: 0.029,inactive: -0.024,inactive: 0.017,inactive: 0.031,inactive: -0.07,inactive: 0.031,inactive: 0.021,inactive: 0.026
CDK11B (UniProt P21127),inactive: -0.017,inactive: -0.006,active: 0.461,inactive: -0.012,inactive: 0,active: 0.399,inactive: 0.02,inactive: 0.031,inactive: -0.042,inactive: 0.007
CDC42 isoform 1 (UniProt P60953),inactive: 0,inactive: -0.016,inactive: -0.057,inactive: -0.14,inactive: 0.072,inactive: 0.086,inactive: -0.011,inactive: 0.034,inactive: -0.055,inactive: 0.098
CENPQ (UniProt Q7L2Z9),inactive: 0.101,inactive: 0.015,inactive: -0.028,inactive: -0.226,inactive: -0.027,inactive: 0.071,inactive: -0.196,inactive: 0.001,inactive: 0.017,inactive: -0.013
CFDP1 (UniProt Q9UEE9),inactive: -0.018,inactive: 0.008,inactive: -0.052,active: -0.288,inactive: 0.006,inactive: 0.066,inactive: -0.032,inactive: 0.041,inactive: 0.07,inactive: 0.091
CDKN2AIP (UniProt Q9NXV6),inactive: -0.015,inactive: -0.036,inactive: 0.024,inactive: -0.04,inactive: 0.017,inactive: 0.08,inactive: -0.034,inactive: 0.043,inactive: 0.016,inactive: 0.026
CDR2L (UniProt Q86X02),inactive: -0.004,inactive: -0.066,inactive: 0.018,inactive: -0.059,inactive: -0.008,inactive: -0.04,inactive: -0.031,inactive: -0.003,inactive: 0.052,inactive: -0.104

# Two neighbouring records from above, quoted:
Target,log2 fold change (lapatinib),log2 fold change (pictilisib),log2 fold change (crizotinib),log2 fold change [1],log2 fold change (duvelisib),log2 fold change (gandotinib),log2 fold change (tozasertib),log2 fold change (doramapimod),log2 fold change (bafetinib),log2 fold change [2]
CENPQ (UniProt Q7L2Z9),inactive: 0.101,inactive: 0.015,inactive: -0.028,inactive: -0.226,inactive: -0.027,inactive: 0.071,inactive: -0.196,inactive: 0.001,inactive: 0.017,inactive: -0.013
CFDP1 (UniProt Q9UEE9),inactive: -0.018,inactive: 0.008,inactive: -0.052,active: -0.288,inactive: 0.006,inactive: 0.066,inactive: -0.032,inactive: 0.041,inactive: 0.07,inactive: 0.091
